## Results from one PubChem assay

Source: PubChem BioAssay AID1159506 (NCATS, 2015).

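Luminescence from an EWS-FLI1 target-promoter (NR0B1) reporter, set against a CMV-promoter reporter, two days after silencing single genes in TC32 Ewing sarcoma cells.
Each siRNA was applied at 20 nM.
A z-score of the log NR0B1-over-CMV signal, less the median of siRNAs with the same seed; more negative means a stronger specific loss of the NR0B1 reporter.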

This is part of the screen; most of the strongest results are not listed here.
Sequences are the guide (antisense) strand, without overhang.

Result for UGAGUAGCUGGUUUAACUG against DBI was seed-corrected z-score -0.5739.
Result for UCACUAAUACUUUGAUGCC against PARGP1 was seed-corrected z-score 0.692.
Result for UAGGUGACCACUGUAGAAG against VPS29 was seed-corrected z-score -0.156.
Result for UGCUUAUAUAGGUUUGACG against FGF9 was seed-corrected z-score -0.3483.
Result for UUUGCUUUAGCCCUGUUGU against LOC646227 was seed-corrected z-score -1.667.
Result for UGUAUAACAGCUAGUUUCC against USP40 was seed-corrected z-score 0.4524.
Result for UCAUGAUCAAGACUAAAGC against NOX3 was seed-corrected z-score -0.5655.
Result for AUUUGGACUUGUAUGGUUC against KIF1BP was seed-corrected z-score 0.3803.
Result for UCUCAAACCAGUCAAGCAG against PIM2 was seed-corrected z-score 0.1086.
Result for UUCACAUCAAUCCCAUGGG against YIF1B was seed-corrected z-score -1.133.
Result for UACUUGACUGGACAAUUCC against GABRA1 was seed-corrected z-score -0.622.
Result for UGCGUUGUUACUCUGAGUC against MARK2 was seed-corrected z-score -0.1082.
Result for AAGCUAAUUUGCACCAUCC against CNIH1 was seed-corrected z-score 0.777.
Result for UUUAGGUCUACUUUAUUCU against THRB-AS1 was seed-corrected z-score -0.08776.
Result for UUUGAAAACAGCUCCUAGG against TSPAN8 was seed-corrected z-score 0.502.
Result for UUCUCGUUCACGAGCAUGU against LDOC1 was seed-corrected z-score 0.3881.
Result for UUUCCAUUUUUGCCACUGC against CYP2W1 was seed-corrected z-score -0.6037.
Result for UGCGAUGUCAGUCUCCCUC against SLC52A3 was seed-corrected z-score -0.3384.
Result for AGAUGUCACAGAUAACCGC against C3orf49 was seed-corrected z-score -0.4258.
Result for UAUAGUAAUAGGUAAAACC against WBP4 was seed-corrected z-score -0.5085.
Result for UACUUCUUCUUCAUACUUC against KRT83 was seed-corrected z-score -0.1566.
Result for UAUCACUAAGGUACCGUUC against MXRA5 was seed-corrected z-score -0.2702.
Result for UCUCGAUCAUGAGAAACUG against RASSF9 was seed-corrected z-score 0.2026.
Result for UUCACGUUGACAUAGAGUG against EDEM1 was seed-corrected z-score -0.6664.
Result for UUCUGAGUAAACCCGAUCC against ACTR6 was seed-corrected z-score 1.209.
Result for UCACGUAUGAAAAAUCAUG against C1orf101 was seed-corrected z-score -0.4721.
Result for UAAGAUUUGAGGACCGGUU against ZNF92 was seed-corrected z-score 0.3631.
Result for AUCCCUACCCUUAUUAUGC against DDX53 was seed-corrected z-score 0.1876.
Result for UCAGGAACAUCAUAAGCCC against FAM173A was seed-corrected z-score -0.3975.
Result for AAUGGUGUUGUCAGGCUGC against UBXN11 was seed-corrected z-score 0.8956.
Result for UCUUUAAGCAGGGUCAGCU against SLC25A22 was seed-corrected z-score -0.2729.
Result for UUUCUCAUCCUUUAGGACC against WFIKKN2 was seed-corrected z-score -0.3182.
Result for UCAGAUCCAACUUACAGGC against TBPL2 was seed-corrected z-score 0.4155.
Result for AAGUGAUCCACCGUCAUCU against HEYL was seed-corrected z-score 2.358.
Result for UUCGUGAACCCUGCUAGUC against MAGI1 was seed-corrected z-score -0.06867.
Result for UCAUUGGUGACUUCGCACU against HAPLN4 was seed-corrected z-score -0.2286.
Result for UCCAUGAUAAUCCUUAUAC against ELP4 was seed-corrected z-score 0.4541.
Result for UUGUAAUGUACGUAGAUGC against LGALS13 was seed-corrected z-score 0.5922.
Result for UCUGUAUUCAUGAAGCUUA against S100A11 was seed-corrected z-score -0.0658.
Result for UAGCUACUGAGCCUUCUGC against NAA20 was seed-corrected z-score 0.3993.
Result for UAUGGUUCAUCUGGAACUG against DHDDS was seed-corrected z-score -0.9261.
Result for UACCUCAUCAGCCUGACCA against PLBD2 was seed-corrected z-score 0.02304.

3 of the entries, repeated:

| strand | gene | seed-corrected z-score |
|---|---|---|
| `UAAGAUUUGAGGACCGGUU` | ZNF92 | 0.3631 |
| `UUCUCGUUCACGAGCAUGU` | LDOC1 | 0.3881 |
| `UCUCAAACCAGUCAAGCAG` | PIM2 | 0.1086 |